Some of the results follow.
Legend:
Experiment in all cases: glycan array binding signal (z-score within array); higher = stronger binding
Conditions in all cases: glycan notation: IUPAC condensed, linker removed
Fuc(a1-2)Gal = biological target: Fuc(a1-2)Gal
Procedure, shortened: (§1)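 Glycan array data were curated from 3228 arrays in the Consortium for Functional Glycomics database and kept only where the protein sequence was available. Glycan names were converted to IUPAC-condensed notation, and columns mapping to the same glycan were averaged. The binding signal is a within-array Z-score, averaged across arrays of the same protein sequence at different concentrations or buffers and across linkers. Negative Z-scores can be read as non-binding.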

Fuc(a1-2)Gal(b1-3)GalNAc = biological target: Fuc(a1-2)Gal(b1-3)GalNAc
Procedure, shortened: as §1

[1] = biological target: Fuc(a1-2)Gal(b1-3)GalNAc(a1-3)[Fuc(a1-2)]Gal(b1-4)Glc
Procedure, shortened: as §1

[2] = biological target: Fuc(a1-2)Gal(b1-3)GalNAc(a1-3)[Fuc(a1-2)]Gal(b1-4)GlcNAc
Procedure, shortened: as §1

[3] = biological target: Fuc(a1-2)Gal(b1-3)GalNAc(b1-3)Gal
Procedure, shortened: as §1

[4] = biological target: Fuc(a1-2)Gal(b1-3)GalNAc(b1-3)Gal(a1-4)Gal(b1-4)Glc
Procedure, shortened: as §1

[5] = biological target: Fuc(a1-2)Gal(b1-3)GalNAc(b1-4)[Neu5Ac(a2-3)]Gal(b1-4)Glc
Procedure, shortened: as §1

Fuc(a1-2)Gal(b1-3)GlcNAc = biological target: Fuc(a1-2)Gal(b1-3)GlcNAc
Procedure, shortened: as §1

[6] = biological target: Fuc(a1-2)Gal(b1-3)GlcNAc(b1-2)Man(a1-3)[Fuc(a1-2)Gal(b1-3)GlcNAc(b1-2)Man(a1-6)]Man(b1-4)GlcNAc(b1-4)GlcNAc
Procedure, shortened: as §1

[7] = biological target: Fuc(a1-2)Gal(b1-3)GlcNAc(b1-2)Man(a1-3)[Fuc(a1-2)Gal(b1-3)GlcNAc(b1-2)Man(a1-6)]Man(b1-4)GlcNAc(b1-4)[Fuc(a1-6)]GlcNAc
Procedure, shortened: as §1

[8] = biological target: Fuc(a1-2)Gal(b1-3)GlcNAc(b1-3)Gal(b1-4)Glc
Procedure, shortened: as §1

[9] = biological target: Fuc(a1-2)Gal(b1-3)GlcNAc(b1-3)GalNAc
Procedure, shortened: as §1

[10] = biological target: Fuc(a1-2)Gal(b1-3)GlcNAc(b1-3)[Fuc(a1-2)Gal(b1-3)GlcNAc(b1-6)]GalNAc
Procedure, shortened: as §1

[11] = biological target: Fuc(a1-2)Gal(b1-3)GlcNAc(b1-3)[Gal(b1-4)GlcNAc(b1-6)]Gal(b1-4)Glc
Procedure, shortened: as §1

[12] = biological target: Fuc(a1-2)Gal(b1-3)GlcNAc(b1-3)[Neu5Ac(a2-6)Gal(b1-4)GlcNAc(b1-6)]Gal(b1-4)Glc
Procedure, shortened: as §1

[13] = biological target: Fuc(a1-2)Gal(b1-3)GlcNAc6S
Procedure, shortened: as §1

[14] = biological target: Fuc(a1-2)Gal(b1-3)[Fuc(a1-4)]GlcNAc
Procedure, shortened: as §1

[15] = biological target: Fuc(a1-2)Gal(b1-3)[Fuc(a1-4)]GlcNAc(b1-2)Man(a1-3)[Fuc(a1-2)Gal(b1-3)[Fuc(a1-4)]GlcNAc(b1-2)Man(a1-3)]Man(b1-4)GlcNAc(b1-4)GlcNAc
Procedure, shortened: as §1

[16] = biological target: Fuc(a1-2)Gal(b1-3)[Fuc(a1-4)]GlcNAc(b1-2)Man(a1-3)[Fuc(a1-2)Gal(b1-3)[Fuc(a1-4)]GlcNAc(b1-2)Man(a1-6)]Man(b1-4)GlcNAc(b1-4)[Fuc(a1-6)]GlcNAc(b1-4)[Fuc(a1-6)]GlcNAc
Procedure, shortened: as §1

[17] = biological target: Fuc(a1-2)Gal(b1-3)[Fuc(a1-4)]GlcNAc(b1-3)[Fuc(a1-3)[Gal(b1-4)]GlcNAc(b1-6)]Gal(b1-4)Glc
Procedure, shortened: as §1

[18] = biological target: Fuc(a1-2)Gal(b1-3)[Fuc(a1-4)]GlcNAc(b1-3)[Gal(b1-4)GlcNAc(b1-6)]Gal(b1-4)Glc
Procedure, shortened: as §1

Fuc(a1-2)Gal(b1-4)Glc = biological target: Fuc(a1-2)Gal(b1-4)Glc
Procedure, shortened: as §1

Fuc(a1-2)Gal(b1-4)Glc6S = biological target: Fuc(a1-2)Gal(b1-4)Glc6S
Procedure, shortened: as §1

Fuc(a1-2)Gal(b1-4)GlcNAc = biological target: Fuc(a1-2)Gal(b1-4)GlcNAc
Procedure, shortened: as §1

[19] = biological target: Fuc(a1-2)Gal(b1-4)GlcNAc(b1-2)Man
Procedure, shortened: as §1

[20] = biological target: Fuc(a1-2)Gal(b1-4)GlcNAc(b1-2)Man(a1-3)[Fuc(a1-2)Gal(b1-4)GlcNAc(b1-2)Man(a1-6)]Man(b1-4)GlcNAc(b1-4)GlcNAc
Procedure, shortened: as §1

[21] = biological target: Fuc(a1-2)Gal(b1-4)GlcNAc(b1-2)Man(a1-3)[Fuc(a1-2)Gal(b1-4)GlcNAc(b1-2)Man(a1-6)]Man(b1-4)GlcNAc(b1-4)[Fuc(a1-6)]GlcNAc
Procedure, shortened: as §1

[22] = biological target: Fuc(a1-2)Gal(b1-4)GlcNAc(b1-2)[Fuc(a1-2)Gal(b1-4)GlcNAc(b1-4)]Man(a1-3)[Fuc(a1-2)Gal(b1-4)GlcNAc(b1-2)Man(a1-6)]Man(b1-4)GlcNAc(b1-4)GlcNAc
Procedure, shortened: as §1

[23] = biological target: Fuc(a1-2)Gal(b1-4)GlcNAc(b1-3)Gal(b1-4)GlcNAc
Procedure, shortened: as §1

[24] = biological target: Fuc(a1-2)Gal(b1-4)GlcNAc(b1-3)Gal(b1-4)GlcNAc(b1-2)Man(a1-3)[Fuc(a1-2)Gal(b1-4)GlcNAc(b1-3)Gal(b1-4)GlcNAc(b1-2)Man(a1-6)]Man(b1-4)GlcNAc(b1-4)GlcNAc
Procedure, shortened: as §1

[25] = biological target: Fuc(a1-2)Gal(b1-4)GlcNAc(b1-3)Gal(b1-4)GlcNAc(b1-3)Gal(b1-4)GlcNAc
Procedure, shortened: as §1

[26] = biological target: Fuc(a1-2)Gal(b1-4)GlcNAc(b1-3)GalNAc
Procedure, shortened: as §1

[27] = biological target: Fuc(a1-2)Gal(b1-4)GlcNAc(b1-3)[Fuc(a1-2)Gal(b1-4)GlcNAc(b1-6)]GalNAc
Procedure, shortened: as §1

[28] = biological target: Fuc(a1-2)Gal(b1-4)GlcNAc(b1-3)[Fuc(a1-3)[Gal(b1-4)]GlcNAc(b1-6)]Gal(b1-4)Glc
Procedure, shortened: as §1

[29] = biological target: Fuc(a1-2)Gal(b1-4)GlcNAc(b1-6)GalNAc
Procedure, shortened: as §1

[30] = biological target: Fuc(a1-2)Gal(b1-4)GlcNAc6S
Procedure, shortened: as §1

[31] = biological target: Fuc(a1-2)Gal(b1-4)[Fuc(a1-3)]GlcNAc
Procedure, shortened: as §1

B1: PX9961K-bvu-480-28-480 (Bacteroides vulgatus) (protein)
chain: NKIPTTMAFRTVTDVDNAVNGLYDLMSGSGYYGAAMFAYGDMKGDDMQSSEESGVCNTCYMFNHRPNSLNAGSLWGRPFYILREAWNILNAIAEGKIESGDEKKLNALKGETMAVIALCQFDLTRCFGYPYTKDKGASLGAPLIDHLVGTYENPPRSTVAQAYDFIIETLEEAVTLMSEEKNNGRMNKYAARALLARIYLYHDDNRKAFDLADQLIKDADTSGSYALYPHEKYVAAWSVEAKFGSESFFEIANSVDDTPGRDSWGYLLNWYGYQKGFVTQKYAEQMLADPGDVRGHLLEENKYAGKTVWWLYKLRGTDLKTAPLECNNVVLRLSEVYLIAAEAGCKLGGDAAVQGLGYLNEIVKRGNPDNEVTMADYTLDRVLDERSKELVGEGHRFFDLLRNGKTIVRKGGYHLPSVDEEVDWDFYKCVLPIPEDQFIFSPEMEQNPGYPKN
glycan array binding signal (z-score) (Fuc(a1-2)Gal): -0.335 | glycan array binding signal (z-score) (Fuc(a1-2)Gal(b1-3)GalNAc): -0.167 | glycan array binding signal (z-score) [1]: 0.011 | glycan array binding signal (z-score) [2]: -0.747 | glycan array binding signal (z-score) [3]: -0.419 | glycan array binding signal (z-score) [4]: 0.467 | glycan array binding signal (z-score) [5]: -0.817 | glycan array binding signal (z-score) (Fuc(a1-2)Gal(b1-3)GlcNAc): -0.667 | glycan array binding signal (z-score) [6]: -0.169 | glycan array binding signal (z-score) [7]: 0.147 | glycan array binding signal (z-score) [8]: -0.662 | glycan array binding signal (z-score) [9]: -0.676 | glycan array binding signal (z-score) [10]: 0.119 | glycan array binding signal (z-score) [11]: -0.551 | glycan array binding signal (z-score) [12]: -0.084 | glycan array binding signal (z-score) [13]: -0.581 | glycan array binding signal (z-score) [14]: -0.319 | glycan array binding signal (z-score) [15]: 1.11 | glycan array binding signal (z-score) [16]: -0.657 | glycan array binding signal (z-score) [17]: -0.282 | glycan array binding signal (z-score) [18]: 0.544 | glycan array binding signal (z-score) (Fuc(a1-2)Gal(b1-4)Glc): -0.656 | glycan array binding signal (z-score) (Fuc(a1-2)Gal(b1-4)Glc6S): 0.129 | glycan array binding signal (z-score) (Fuc(a1-2)Gal(b1-4)GlcNAc): 0.174 | glycan array binding signal (z-score) [19]: -0.528 | glycan array binding signal (z-score) [20]: -0.758 | glycan array binding signal (z-score) [21]: 0.247 | glycan array binding signal (z-score) [22]: 0.463 | glycan array binding signal (z-score) [23]: -0.853 | glycan array binding signal (z-score) [24]: 0.939 | glycan array binding signal (z-score) [25]: 0.271 | glycan array binding signal (z-score) [26]: -0.27 | glycan array binding signal (z-score) [27]: 0.582 | glycan array binding signal (z-score) [28]: -0.486 | glycan array binding signal (z-score) [29]: 0.033 | glycan array binding signal (z-score) [30]: 0.071 | glycan array binding signal (z-score) [31]: -0.448

Reference: the supplement of paper PMC8728848
